Reference: PubChem BioAssay AID504774 (Drosophila RNAi Screening Center, 2011)

Assay: 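Fly genes whose loss alters survival after alkylation damage to DNA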 (primary screen)
System: Drosophila Kc167 cells
Reagents: long dsRNA against Drosophila genes, about 0.25 µg dsRNA per well
Time to read-out: about 6 days: 3 days knock-down, then 3 days with or without MMS
Challenge: methyl methanesulphonate 0.004% (w/v) for 3 days after knock-down
Read-out: 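Viability in wells given MMS, read as ATP luminescence, normalised by quantiles plate by plate and averaged across replicates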
Direction: mean viability with MMS: higher = more surviving cells after MMS
The deposit covers about 23,000 reagents; below is an unselected part of those with a known target gene and a result. 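Values are quantile-normalised luminescence on an arbitrary scale; higher means more cells surviving MMS.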 A plus sign joins genes that one reagent is predicted to hit. Not all columns of the deposit are shown.

target gene | amplicon | mean viability with MMS
CG15254 | DRSC01870 | 3.66e6
CG15254 | DRSC21765 | 3.31e6
Cyp313b1 (Cytochrome P450 313b1) | DRSC16629 | 3.64e6
LRP1 (LDL receptor protein 1) | DRSC07238 | 3.59e6
RhoGDI | DRSC10919 | 3.65e6
CG13171 | DRSC06299 | 3.59e6
CG4537 | DRSC02756 | 3.63e6
CG4554 | DRSC04473 | 3.32e6
CG4271 | DRSC00649 | 3.60e6
CG10102 (retired record) | DRSC05963 | 3.39e6
Hnf4 (Hepatocyte nuclear factor 4) | DRSC01032 | 3.57e6
Hnf4 (Hepatocyte nuclear factor 4) | DRSC03344 | 1.82e6
ca (claret) | DRSC15305 | 3.65e6
ca (claret) | DRSC15306 | 3.70e6
ca (claret) | DRSC16314 | 3.52e6
mthl14 (methuselah-like 14) | DRSC07865 | 3.55e6
CG6569 | DRSC16067 | 3.44e6
CG7514 | DRSC08597 | 3.70e6
CG32795 | DRSC18609 | 3.45e6
CG32795 | DRSC18610 | 3.50e6
CG34149 | DRSC14537 | 3.45e6
Trhn (Tryptophan hydroxylase neuronal) | DRSC08621 | 3.66e6
CG15365 | DRSC18038 | 2.99e6
CG15365 | DRSC23021 | 3.61e6
CG18304 | DRSC02664 | 3.62e6
JMJD7 (Jumonji domain containing 7) | DRSC09703 | 1.90e6
CG14050 | DRSC18594 | 3.47e6
CG34434 | DRSC18134 | 3.58e6
larp (La related protein) | DRSC14728 | 3.48e6
larp (La related protein) | DRSC16984 | 3.45e6
larp (La related protein) | DRSC21856 | 3.37e6
kraken | DRSC00824 | 3.55e6
dar1 (dendritic arbor reduction 1) | DRSC08049 | 3.73e6
dar1 (dendritic arbor reduction 1) | DRSC08233 | 3.63e6
CG10910 | DRSC06007 | 3.56e6
CG13946 | DRSC00364 | 3.56e6
Fmo-1 (Flavin-containing monooxygenase 1) | DRSC04328 | 3.42e6
ric8a | DRSC18093 | 3.55e6
Neu2 (Neuroectoderm-expressed 2) | DRSC11819 | 3.69e6
CG8910 | DRSC07414 | 3.54e6
Cdk5alpha (Cdk5 activator-like protein) | DRSC03290 | 3.53e6
Cdk5alpha (Cdk5 activator-like protein) | DRSC23301 | 3.33e6
Ugalt (UDP-galactose transporter) | DRSC18467 | 3.43e6
Eaf (ELL-associated factor) | DRSC05050 | 3.30e6
Eaf (ELL-associated factor) | DRSC06052 | 3.65e6
Eaf (ELL-associated factor) | DRSC22028 | 3.59e6
Cpr50Ca (Cuticular protein 50Ca) | DRSC05454 | 3.50e6
Cpr50Ca (Cuticular protein 50Ca) | DRSC06372 | 3.49e6
Cpr50Ca (Cuticular protein 50Ca) | DRSC06375 | 3.55e6
Jarid2 (Jumonji, AT rich interactive domain 2) | DRSC10372 | 3.49e6
CG15043 | DRSC19619 | 3.30e6
Vha13 (Vacuolar H[+] ATPase 13kD subunit) | DRSC16895 | 3.42e6
Hmg-2 (High mobility group protein 2) | DRSC04554 | 3.65e6
CG8611 | DRSC19340 | 3.74e6
CG5877 | DRSC19963 | 3.49e6
CG7420 | DRSC00704 | 3.57e6
Cyp4g15 (Cytochrome P450 4g15) | DRSC20240 | 3.47e6
Gs1l (GS1-like) | DRSC00754 | 3.49e6
MICU3 (Mitochondrial calcium uptake 3) | DRSC13381 | 3.55e6
MICU3 (Mitochondrial calcium uptake 3) | DRSC15613 | 3.56e6
PK2-R2 (Pyrokinin 2 receptor 2) | DRSC16448 | 3.75e6
CG15803 | DRSC15121 | 3.57e6
CG12506 | DRSC00347 | 3.37e6
CG42821 + CG42822 | DRSC13231 | 3.49e6
CG42821 + CG42822 | DRSC13232 | 3.54e6
CG33229 | DRSC07863 | 3.41e6
ens (ensconsin) | DRSC08454 | 3.64e6
Nsf2 (N-ethylmaleimide-sensitive factor 2) | DRSC22104 | 3.71e6

As entered above.
Cyp4g15 (Cytochrome P450 4g15) [DRSC20240], mean viability with MMS = 3.47e6
Value of larp (La related protein) [DRSC14728] under “mean viability with MMS”: 3.48e6
For “mean viability with MMS”, JMJD7 (Jumonji domain containing 7) [DRSC09703] shows 1.90e6
Value for CG7420 [DRSC00704] under “mean viability with MMS”: 3.57e6
